Here are results for 28 compounds from PubChem BioAssay AID330 (DTP/NCI, 2004).

The list does not hold the whole screen: it gathers tests that were run many times, whatever their T/C, doses with no T/C, and many T/C values between a quarter and a half above the control. Other doses and runs of a compound stand elsewhere. T/C is the treated group as % of the vehicle group. Some doses have a count of surviving animals in place of a T/C: the source holds a T/C of zero for them, seemingly a mark for toxic or unscored doses. Some doses without a T/C left all or most animals alive at the check, yet need not have been tolerated: survival well below the control is almost never listed, so the zero probably covers shortened survival too. Counts of survivors are from the toxicity check (mostly the fifth day) where no day follows; animals may have died later. Schedule codes are those of the source, read here as Q, the interval in days (D) or hours (H), X, the number of doses. Some entries hold several experiments; the results are listed from low to high. For survival time, this PubChem deposit counts one and a half times the control or more as active, and values a quarter to a half above the control carry no call in these data; other NCI protocols may use other cut-offs. Marks such as (2×) count equal records among those shown. Some T/C values carry the count of animals alive at the toxicity check (mostly the fifth day); where none is given, no animal had died by that day.

This assay deals with P388 leukemia ip, CD2F1 mice, survival T/C. The assay can be described thus: NCI In Vivo Anticancer Drug Screen. Data for tumor model P388 Leukemia (intraperitoneal) in CD2F1 (CDF1) mice. As to conditions: T/C endpoint: median survival time, higher T/C = longer survival.
The mark [1] stands for this setting: dose: 200.0 mg/kg/injection, schedule: Q01DX009 (ip), vehicle: saline.
Where [2] appears, read: dose: 100.0 mg/kg/injection, schedule: Q04DX003 (ip), vehicle: saline with Tween-80.
Where [3] appears, read: dose: 200.0 mg/kg/injection, schedule: Q04DX003 (ip), vehicle: saline with Tween-80.
Where [4] appears, read: dose: 400.0 mg/kg/injection, schedule: Q04DX003 (ip), vehicle: saline with Tween-80.
Setting [5] is: dose: 200.0 mg/kg/injection, schedule: Q01DX005 (ip), vehicle: Klucel (hydroxypropylcellulose) (HPC).
[6] abbreviates: dose: 50.0 mg/kg/injection, schedule: Q01DX005 (ip), vehicle: Klucel (hydroxypropylcellulose) (HPC).
Setting [7] is: dose: 100.0 mg/kg/injection, schedule: Q01DX005 (ip), vehicle: Klucel (hydroxypropylcellulose) (HPC).
Setting [8] is: dose: 3.12 mg/kg/injection, schedule: Q01DX009 (ip), vehicle: saline with Tween-80.
The mark [9] stands for this setting: dose: 12.5 mg/kg/injection, schedule: Q01DX009 (ip), vehicle: saline with Tween-80.
Setting [10] is: dose: 50.0 mg/kg/injection, schedule: Q01DX009 (ip), vehicle: saline with Tween-80.
Setting [11] is: dose: 100.0 mg/kg/injection, schedule: Q01DX009 (ip), vehicle: saline with Tween-80.
The mark [12] stands for this setting: dose: 25.0 mg/kg/injection, schedule: Q01DX009 (ip), vehicle: saline with Tween-80.
The mark [13] stands for this setting: dose: 200.0 mg/kg/injection, schedule: Q01DX009 (ip), vehicle: saline with Tween-80.
[14] abbreviates: dose: 12.5 mg/kg/injection, schedule: Q01DX009 (ip), vehicle: water.

With `CCC(O)CN(C)Cc1cc2c(c3ccccc13)CCCC2` (stereo unspecified), the survivor count under setting [1] was 0 of 6.

Regarding `COC(=O)c1[c]([Sn]([CH3])([CH3])[CH3])n[n]([Sn]([CH3])([CH3])[CH3])c1C(=O)OC`, the survivor count is on record as 0 of 6 (dose: 25.0 mg/kg/injection, schedule: Q04DX003 (ip), vehicle: saline); 0 of 6 under setting [2]; 0 of 6 under setting [3]; 0 of 6 under setting [4].

In the case of `c1ccc2c3[n+](ccc2c1)CCC[n+]1ccc2ccccc2c1-3`, the survivor count is recorded as 1 of 6 (dose: 12.5 mg/kg/injection, schedule: Q01DX001 (ip), vehicle: saline); 0 of 6 (dose: 25.0 mg/kg/injection, schedule: Q01DX001 (ip), vehicle: saline); 0 of 6 (dose: 50.0 mg/kg/injection, schedule: Q01DX001 (ip), vehicle: saline).

For the compound `O=S(=O)(CI)OCCCl`, the survivor count under setting [5] is reported as 0 of 6.

Turning to `COc1ccc([N+]([O-])=NC#N)cc1`, where the note is “dose: 200.0 mg/kg/injection, schedule: Q04DX003 (ip), vehicle: Klucel (hydroxypropylcellulose) (HPC)”, the survivor count was 6 of 6.

As to `c1ccc2c(c1)C1CCC2[n+]2ccccc21` (stereo unspecified), the survivor count runs as follows: under setting [6], 0 of 5; under setting [7], 0 of 5; under setting [5], 0 of 5.

With `CCOC(=O)c1ccc(NC(=O)Nc2ncccc2C)cc1`, the survivor count under setting [8] is 6 of 6, the survivor count under setting [9] was 6 of 6, the survivor count under setting [10] is on record as 6 of 6 and the survivor count under setting [11] was 6 of 6.

For the compound `CCNC(=O)c1nnn2c1nc(N)c1cc(Cl)ccc12`, the survivor count under setting [6] is reported as 1 of 6.

Regarding `Cn1cnc([N+](=O)[O-])c1[Se]c1nc(N)nc2c1ncn2C1OC(CO)C(O)C1O` (stereo unspecified), the T/C reads like this: (dose: 4.0 mg/kg/injection, schedule: Q01DX009 (ip), vehicle: water) 126 % of control; (dose: 8.0 mg/kg/injection, schedule: Q01DX009 (ip), vehicle: distilled water + Tween-80) 134 % of control; (dose: 8.0 mg/kg/injection, schedule: Q01DX009 (ip), vehicle: water) 130 % of control; (dose: 16.0 mg/kg/injection, schedule: Q01DX009 (ip), vehicle: distilled water + Tween-80) 142 % of control; (dose: 16.0 mg/kg/injection, schedule: Q01DX009 (ip), vehicle: water) 142 % of control. Also, for the setting “dose: 128.0 mg/kg/injection, schedule: Q01DX009 (ip), vehicle: water”, the survivor count is 3 of 6.

Consider `CN(C)CCN1C(=O)c2cccc3cc([N+](=O)[O-])cc(c23)C1=O`, for which the T/C by setting is: (dose: 0.78 mg/kg/injection, schedule: Q01DX009 (ip), vehicle: saline with Tween-80) 128 % of control; (dose: 1.56 mg/kg/injection, schedule: Q01DX009 (ip), vehicle: saline with Tween-80) 101 (2×), 128, 129 % of control; under setting [8], 140 % of control; (dose: 3.13 mg/kg/injection, schedule: Q01DX009 (ip), vehicle: saline with Tween-80) 141 % of control; (dose: 6.25 mg/kg/injection, schedule: Q01DX009 (ip), vehicle: saline with Tween-80) 118, 142, 144, 151 % of control; under setting [9], 126, 144, 171 % of control. In addition, the survivor count by setting is: under setting [9], 6 of 6; under setting [12], 6 of 6; under setting [10], 0 of 6; under setting [11], 0 of 6; under setting [13], 0 of 6.

As to `CC[C@@H]1CN2CCc3c([nH]c4ccccc34)[C@@H]2C[C@@H]1/C(=C\OC)C(=O)OC`, the survivor count (dose: 200.0 mg/kg/injection, schedule: Q01DX005 (ip), vehicle: saline) is 0 of 6 and 3 of 6.

On to `O=P(c1ccccc1)(N1CC1)N1CC1`, for which the survivor count (dose: 60.0 mg/kg/injection, schedule: Q04DX003 (ip), vehicle: saline) was 6 of 6.

As to `O=C(OCC1OC(n2cc(C(F)(F)F)c(=O)[nH]c2=O)CC1OC(=O)c1ccc([N+](=O)[O-])cc1)c1ccc([N+](=O)[O-])cc1` (stereo unspecified), the survivor count under setting [5] is 6 of 6.

With `Nc1ccc2[se]nc3c2c1C(=O)c1ccccc1-3`, the survivor count is, setting by setting: under setting [6], 5 of 6; under setting [7], 3 of 6; under setting [5], 1 of 6.

In the case of `Cn1cnc([N+](=O)[O-])c1[Se]c1nc(N)nc2nc[nH]c12`, the T/C was 131 % of control (dose: 12.5 mg/kg/injection, schedule: Q01DX009 (ip), vehicle: dextrose) and 126 % of control under setting [14].

`Cc1ccc(SSC(=S)Nc2ccccc2)cc1`: the survivor count under setting [13] is on record as 3 of 6.

For `CC(=O)N=c1sccn1CC(O)c1ccccc1` (stereo unspecified), the survivor count (dose: 100.0 mg/kg/injection, schedule: Q01DX001 (ip), vehicle: Klucel (hydroxypropylcellulose) (HPC)) is 6 of 6.

For the compound `Cc1cc(Nc2ccc3c(c2)OCO3)c2cc3c(cc2n1)OCO3`, the T/C under setting [7] is 126 % of control. In addition, the survivor count (dose: 400.0 mg/kg/injection, schedule: Q01DX005 (ip), vehicle: Klucel (hydroxypropylcellulose) (HPC)) is recorded as 0 of 6.

Regarding `Cc1ccc2c(/C=C/c3ccc(N(C)C)cc3)ccnc2c1C`, under setting [12], the T/C is 133 % of control.

For `CN(C)c1ccc(C2(c3ccccc3)NNC(=O)c3ccccc32)cc1` (stereo unspecified), the survivor count (dose: 100.0 mg/kg/injection, schedule: Q01DX005 (ip), vehicle: saline with Tween-80) is listed as 6 of 6.

Take `C/C(=N\NC(N)=Nc1ccc(Cl)cc1)c1ccc(Cl)c(Cl)c1`: the survivor count is, setting by setting: (dose: 200.0 mg/kg/injection, schedule: Q04DX002 (ip), vehicle: saline with Tween-80) 0 of 6; (dose: 400.0 mg/kg/injection, schedule: Q04DX002 (ip), vehicle: saline with Tween-80) 1 of 6.

Regarding `COc1ccc(/C=C\C(=O)c2ccc(C(=O)/C=C/c3ccc(OC)cc3OC)cc2)c(OC)c1`, the survivor count under setting [2] is given as 6 of 6, the survivor count under setting [3] is given as 6 of 6 and the survivor count under setting [4] was 6 of 6.

In the case of `COc1cccc2c1C(=O)c1c(O)c3c(c(O)c1C2=O)CC(O)(C(=O)C(C)C)CC3OC1CC(N)C(O)C(C)O1` (stereo unspecified), the survivor count under setting [14] is on record as 3 of 3; the survivor count (dose: 25.0 mg/kg/injection, schedule: Q01DX009 (ip), vehicle: water) is on record as 0 of 3; the survivor count (dose: 50.0 mg/kg/injection, schedule: Q01DX009 (ip), vehicle: water) is recorded as 0 of 3; the survivor count (dose: 150.0 mg/kg/injection, schedule: Q04DX003 (ip), vehicle: water) is 0 of 3. Also, the T/C (dose: 37.5 mg/kg/injection, schedule: Q04DX003 (ip), vehicle: water) was 128 % of control.

Turning to `COc1ccc(OC(=O)/C=C/c2ccccc2)cc1`, the survivor count was 3 of 6 (dose: 42.5 mg/kg/injection, schedule: Q04DX002 (ip), vehicle: saline with Tween-80) and 6 of 6 (dose: 170.0 mg/kg/injection, schedule: Q04DX002 (ip), vehicle: saline with Tween-80).

Take `Cn1c(C=O)cnc1[N+](=O)[O-]`: the survivor count was 4 of 6 (dose: 100.0 mg/kg/injection, schedule: Q01DX009 (ip), vehicle: Klucel (hydroxypropylcellulose) (HPC)) and 0 of 6 (dose: 200.0 mg/kg/injection, schedule: Q01DX009 (ip), vehicle: Klucel (hydroxypropylcellulose) (HPC)).

As for `COc1ccc2[se]c(C(=O)O)cc2c1`, the survivor count under setting [1] is reported as 6 of 6.

Consider `O=C/C(Cl)=C(/Cl)C(=O)O`, for which the T/C (dose: 20.0 mg/kg/injection, schedule: Q01DX009 (ip), vehicle: saline with Tween-80) was 138 % of control [5 of 6 alive].

As to `O=C(CCl)NCc1ccccc1`, under “dose: 400.0 mg/kg/injection, schedule: Q04DX003 (ip), vehicle: saline”, the survivor count is 4 of 6.
